Test results published in paper PMC10715029, “Interaction and assembly of the DNA replication core proteins of Kaposi’s sarcoma-associated herpesvirus” (Microbiology Spectrum, 2023).
Results are given in words; binding and its absence hold for the method and conditions named. For some of these results: In cells and extracts the contact can be indirect. Some results given as binding are weak or reduced against the parent protein; the word gives no strength. For some of these results: Sequences can lack the tags named with a protein.

Columns and labels:
[1] = molecular target: T1, GAL4-ORF6 (Kaposi's sarcoma-associated herpesvirus (KSHV, human herpesvirus 8)) (UniProt Q2HRD3); assay: two-hybrid; mammalian two-hybrid (GAL4/VP16) in 293T cells, pGal4(5×)-Luc reporter, only the GAL4 and the VP16 fusion coexpressed, luciferase at 24 h, fold activation over empty vector; radicicol (0.25-1 µM) inhibited the activation by GAL4-ORF59 and VP16-ORF9 dose-dependently
T1 sequence: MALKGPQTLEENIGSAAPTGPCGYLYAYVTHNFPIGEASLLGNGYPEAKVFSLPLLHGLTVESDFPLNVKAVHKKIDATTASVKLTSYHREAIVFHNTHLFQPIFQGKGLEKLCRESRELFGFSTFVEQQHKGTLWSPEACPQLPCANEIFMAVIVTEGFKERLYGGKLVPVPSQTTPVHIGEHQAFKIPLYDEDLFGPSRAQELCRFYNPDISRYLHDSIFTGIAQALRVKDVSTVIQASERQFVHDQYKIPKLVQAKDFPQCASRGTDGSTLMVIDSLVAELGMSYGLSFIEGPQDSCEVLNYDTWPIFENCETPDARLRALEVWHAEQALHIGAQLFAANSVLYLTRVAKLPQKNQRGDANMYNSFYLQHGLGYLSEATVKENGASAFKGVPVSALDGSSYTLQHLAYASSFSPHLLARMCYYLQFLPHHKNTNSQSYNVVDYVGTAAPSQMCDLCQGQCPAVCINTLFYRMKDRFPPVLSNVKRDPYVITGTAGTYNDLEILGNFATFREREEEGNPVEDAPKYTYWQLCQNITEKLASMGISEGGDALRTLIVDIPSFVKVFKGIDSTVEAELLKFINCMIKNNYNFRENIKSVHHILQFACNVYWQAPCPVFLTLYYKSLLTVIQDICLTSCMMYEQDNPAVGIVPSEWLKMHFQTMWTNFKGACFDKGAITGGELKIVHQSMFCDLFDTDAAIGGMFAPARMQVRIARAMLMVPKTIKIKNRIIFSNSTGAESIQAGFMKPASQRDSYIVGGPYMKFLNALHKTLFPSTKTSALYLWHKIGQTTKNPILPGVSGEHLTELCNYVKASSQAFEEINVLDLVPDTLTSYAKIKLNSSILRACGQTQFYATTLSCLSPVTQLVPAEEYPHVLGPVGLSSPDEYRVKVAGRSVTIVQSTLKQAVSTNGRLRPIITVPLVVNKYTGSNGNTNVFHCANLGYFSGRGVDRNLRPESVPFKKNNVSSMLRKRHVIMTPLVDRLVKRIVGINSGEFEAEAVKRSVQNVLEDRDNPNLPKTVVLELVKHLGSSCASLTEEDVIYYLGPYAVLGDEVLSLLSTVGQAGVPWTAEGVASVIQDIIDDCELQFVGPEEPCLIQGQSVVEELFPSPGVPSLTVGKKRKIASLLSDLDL

[2] = molecular target: T2, GFP-ORF40/41 (Kaposi's sarcoma-associated herpesvirus (KSHV, human herpesvirus 8)) (UniProt Q2HR92); assay: co-IP; 293T cells cotransfected with a GFP fusion and FLAG-tagged proteins for 24 h; lysis in 50 mM Tris-HCl pH 7.6, 150 mM NaCl, 1 mM EDTA, 1% Triton X-100, 1 mM PMSF; precipitation with GFP-Trap MA beads; blots with anti-GFP and anti-FLAG
T2 sequence: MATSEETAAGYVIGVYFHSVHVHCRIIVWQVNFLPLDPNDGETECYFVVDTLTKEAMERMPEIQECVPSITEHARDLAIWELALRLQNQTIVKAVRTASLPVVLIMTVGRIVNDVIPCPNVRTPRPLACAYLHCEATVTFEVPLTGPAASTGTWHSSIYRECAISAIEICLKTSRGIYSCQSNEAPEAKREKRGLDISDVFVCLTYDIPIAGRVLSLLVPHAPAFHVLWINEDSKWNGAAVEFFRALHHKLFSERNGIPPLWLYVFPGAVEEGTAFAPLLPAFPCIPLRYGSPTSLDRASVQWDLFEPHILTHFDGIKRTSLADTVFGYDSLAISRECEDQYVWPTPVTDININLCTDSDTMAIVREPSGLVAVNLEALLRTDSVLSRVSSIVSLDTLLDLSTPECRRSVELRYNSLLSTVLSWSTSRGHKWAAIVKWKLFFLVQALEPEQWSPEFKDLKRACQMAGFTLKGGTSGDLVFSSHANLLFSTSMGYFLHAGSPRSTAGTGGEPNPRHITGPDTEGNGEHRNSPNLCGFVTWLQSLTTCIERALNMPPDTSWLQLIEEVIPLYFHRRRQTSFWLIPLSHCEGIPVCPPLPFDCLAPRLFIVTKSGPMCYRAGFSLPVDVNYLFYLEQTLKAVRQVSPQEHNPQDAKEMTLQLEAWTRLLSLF

[3] = molecular target: T3, GFP-ORF9 (Kaposi's sarcoma-associated herpesvirus (KSHV, human herpesvirus 8)) (UniProt Q2HRD0); assay: as above
T3 sequence: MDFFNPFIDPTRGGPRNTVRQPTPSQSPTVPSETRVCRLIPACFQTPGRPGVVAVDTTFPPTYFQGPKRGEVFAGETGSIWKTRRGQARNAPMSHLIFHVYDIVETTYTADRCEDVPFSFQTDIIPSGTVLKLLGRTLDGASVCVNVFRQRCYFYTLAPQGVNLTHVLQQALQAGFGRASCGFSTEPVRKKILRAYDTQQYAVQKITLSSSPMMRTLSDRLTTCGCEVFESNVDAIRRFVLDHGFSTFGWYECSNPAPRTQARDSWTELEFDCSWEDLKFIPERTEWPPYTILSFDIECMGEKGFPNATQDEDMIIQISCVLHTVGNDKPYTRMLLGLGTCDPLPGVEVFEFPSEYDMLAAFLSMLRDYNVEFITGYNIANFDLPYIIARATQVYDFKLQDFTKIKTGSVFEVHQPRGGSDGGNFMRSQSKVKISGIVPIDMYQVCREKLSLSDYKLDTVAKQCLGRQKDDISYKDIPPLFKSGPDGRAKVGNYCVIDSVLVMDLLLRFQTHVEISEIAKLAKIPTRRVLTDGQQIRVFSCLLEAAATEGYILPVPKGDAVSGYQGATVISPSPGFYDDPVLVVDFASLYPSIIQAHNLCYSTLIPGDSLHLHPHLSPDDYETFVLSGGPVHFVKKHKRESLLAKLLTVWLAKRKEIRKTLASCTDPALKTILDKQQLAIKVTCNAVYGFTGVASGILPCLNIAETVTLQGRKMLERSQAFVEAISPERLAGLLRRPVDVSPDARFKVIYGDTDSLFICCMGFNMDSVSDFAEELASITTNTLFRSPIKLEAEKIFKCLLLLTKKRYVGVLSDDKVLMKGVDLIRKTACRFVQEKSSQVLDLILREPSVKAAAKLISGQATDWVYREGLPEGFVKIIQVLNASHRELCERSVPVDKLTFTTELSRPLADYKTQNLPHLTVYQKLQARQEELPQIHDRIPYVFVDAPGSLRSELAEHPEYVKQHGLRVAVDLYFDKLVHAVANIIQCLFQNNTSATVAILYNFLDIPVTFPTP

| Binder | binding [1] | binding [2] | binding [3] |
| --- | --- | --- | --- |
| VP16-ORF40/41 (natural protein, KSHV ORF40/41, primase-associated factor (PAF); source: 293T, transfected, mammalian two-hybrid fusion) MATSEETAAGYVIGVYFHSVHVHCRIIVWQVNFLPLDPNDGETECYFVVDTLTKEAMERMPEIQECVPSITEHARDLAIWELALRLQNQTIVKAVRTASLPVVLIMTVGRIVNDVIPCPNVRTPRPLACAYLHCEATVTFEVPLTGPAASTGTWHSSIYRECAISAIEICLKTSRGIYSCQSNEAPEAKREKRGLDISDVFVCLTYDIPIAGRVLSLLVPHAPAFHVLWINEDSKWNGAAVEFFRALHHKLFSERNGIPPLWLYVFPGAVEEGTAFAPLLPAFPCIPLRYGSPTSLDRASVQWDLFEPHILTHFDGIKRTSLADTVFGYDSLAISRECEDQYVWPTPVTDININLCTDSDTMAIVREPSGLVAVNLEALLRTDSVLSRVSSIVSLDTLLDLSTPECRRSVELRYNSLLSTVLSWSTSRGHKWAAIVKWKLFFLVQALEPEQWSPEFKDLKRACQMAGFTLKGGTSGDLVFSSHANLLFSTSMGYFLHAGSPRSTAGTGGEPNPRHITGPDTEGNGEHRNSPNLCGFVTWLQSLTTCIERALNMPPDTSWLQLIEEVIPLYFHRRRQTSFWLIPLSHCEGIPVCPPLPFDCLAPRLFIVTKSGPMCYRAGFSLPVDVNYLFYLEQTLKAVRQVSPQEHNPQDAKEMTLQLEAWTRLLSLF | binds |  |  |
| VP16-ORF44 (natural protein, KSHV ORF44, helicase (HEL); source: 293T, transfected, mammalian two-hybrid fusion) MDSSEGCTDMDEPSPGFILNMTSDAKVRSVVEQIDRLSNITTSPPEMGWYDLEFDPLEDEGPFLPFSAYVITGTAGAGKSTSVSALHQNLNCLITGATVVAAQNLSRALKSYCPTIYHAFGFKSRHINICQRKVPKVTQSSIEQLQRYELARYWPTVTDIIREFMRKKQKGQYSSLSQSAFRLLCRMGGANLWTSNIIVIDEAGTLSSHILTAVVFFYWFYNSWLDTPLYRNGAVPCIVCVGSPTQTDAFQSVFNHTQQRNEISACDNVLTFLLGKREVADYIRLDENWALFINNKRCTDPQFGHLLKTLEYNLDISPELMDYIDRFVVPKSKILDPLEYAGWTRLFISHQEVKSFLATLHTCLSSNKDAVSTKLFTCPVVCEVFTEPFEEYKRAVGLTHMTPIEWVTKNLFRLSNYSQFADQDMAVVGTYITDASTQITFATKFVKNSYATLTGKTKKCICGFHGSYQRFKSILDGELFIESHSHDNPAYVYSFLSTLLYNAMYSFYAHGVKQGHEEFLRDLRELPVSQELISEMSSEDVLGQEGDTDAFYLTASLPPSPTHAALPTLVAYYSGAKELFCNRLALARRHFGDEFLHSDFSTFTVNIVVRDGVDFVSTSPGLHGLVAYASTIDTYIIQGYTFLPVRFGRPGGQRLSEDLRRKMPSIVVQDSSGFIACLENNVTKMTETLEGGDVFNICCAGDYGISSNLAMTIVKAQGVSLSRVAISFGNHRNIRASLVYVGVSRAIDARYLVMDSNPLKLMDRGDAQSPSSKYIIKALCNPKTTLIY |  | binds | binds |
| F-ORF9 (protein, UniProt Q2HRD0 1-1012) MDFFNPFIDPTRGGPRNTVRQPTPSQSPTVPSETRVCRLIPACFQTPGRPGVVAVDTTFPPTYFQGPKRGEVFAGETGSIWKTRRGQARNAPMSHLIFHVYDIVETTYTADRCEDVPFSFQTDIIPSGTVLKLLGRTLDGASVCVNVFRQRCYFYTLAPQGVNLTHVLQQALQAGFGRASCGFSTEPVRKKILRAYDTQQYAVQKITLSSSPMMRTLSDRLTTCGCEVFESNVDAIRRFVLDHGFSTFGWYECSNPAPRTQARDSWTELEFDCSWEDLKFIPERTEWPPYTILSFDIECMGEKGFPNATQDEDMIIQISCVLHTVGNDKPYTRMLLGLGTCDPLPGVEVFEFPSEYDMLAAFLSMLRDYNVEFITGYNIANFDLPYIIARATQVYDFKLQDFTKIKTGSVFEVHQPRGGSDGGNFMRSQSKVKISGIVPIDMYQVCREKLSLSDYKLDTVAKQCLGRQKDDISYKDIPPLFKSGPDGRAKVGNYCVIDSVLVMDLLLRFQTHVEISEIAKLAKIPTRRVLTDGQQIRVFSCLLEAAATEGYILPVPKGDAVSGYQGATVISPSPGFYDDPVLVVDFASLYPSIIQAHNLCYSTLIPGDSLHLHPHLSPDDYETFVLSGGPVHFVKKHKRESLLAKLLTVWLAKRKEIRKTLASCTDPALKTILDKQQLAIKVTCNAVYGFTGVASGILPCLNIAETVTLQGRKMLERSQAFVEAISPERLAGLLRRPVDVSPDARFKVIYGDTDSLFICCMGFNMDSVSDFAEELASITTNTLFRSPIKLEAEKIFKCLLLLTKKRYVGVLSDDKVLMKGVDLIRKTACRFVQEKSSQVLDLILREPSVKAAAKLISGQATDWVYREGLPEGFVKIIQVLNASHRELCERSVPVDKLTFTTELSRPLADYKTQNLPHLTVYQKLQARQEELPQIHDRIPYVFVDAPGSLRSELAEHPEYVKQHGLRVAVDLYFDKLVHAVANIIQCLFQNNTSATVAILYNFLDIPVTFPTP |  | binds |  |
